Results: US20190309034A1

B1: 235F5B9 (antibody, V domains shown)
VH: QVQLQQPGAELVKPGASVKLSCKASGYSFSTFFIHWIQQRPGRGLEWIGRIDPNSGATKYNEKFESKATLTVDKPSSTAYMHLSSLTSEDSAVYYCARGEDLLIRTDALDYWGQGTSVTVSS
VL: DIVMTQSQKIMSTTVGDRVSITCKASQNAGIDVAWFQQKPRQSPKLLIFSKSNRYTGVPDRFAGSGSGTDFTLTIYNVQSEDLADYFCLQYRSYPRTFGGGTKLEIK
B2: 13J018-1A4 (antibody, V domains shown)
VH: QVQLQQSGPEVVRPGASVKISCKAPDHIFSIHWMQWVRQRPGPGLEWIGEIFPGSGTTDYNEKFKGKATVTVDRGSRSAYMQFNSLTSEDSAVYFCASGAFDYWGQGTTLTVSS
VL: DIQMTQSPSSLSASLGERVSLTCRASQDIGNRLNWLQQEPDGTIKRLIYATSSLDSGVPKRFSGSRSGSDYSLTISSLESEDFVDYYCLQYASSPFTFGTGTKLEIK
B3: 206G9A10 (antibody, V domains shown)
VH: QVQLQQPGAELVKPGASVKLSCKASGYTFSIFCIHWVQQRPGRGLEWIGRIDPSSGGTKYNEKFESKATLTVDKSSSTAYMQLSSLTSEDSAVYYCARGEDLLVRTDAMDYWGQGTSVTVSS
VL: DIVMTQSQKFMSTTVGDRVSITCKASQNAGAAVAWFQQKPGQSPKLLIYSASNRYTGVPDRFTGSGSGTDFTLTISNVQSEDLADYICQQYRSYPRTFGGGTKLEIK
B4: 227D5A7 (antibody, V domains shown)
VH: QVQLQQPGAELVKPGASVKLSCKASGYTFSIFCVHWVQQRPGRGLEWIGRIDPSSGGTKYNEKFESKATLTVDKSSSTAYMQLSSLTPEDSAVYYCARGEDLLVRTDALDYWGQGSSVTVSS
VL: DIVMTQSQKFMSTTVGDRVSITCKASQNAGAAVAWFQQKPGQSPKLLIYSASNRYTGVPDRFTGSGSGTDFTLTISNVQSEDLADYICQQYRSFPRTFGGGTKLEIK
B5: 250E5A11 (antibody, V domains shown)
VH: QVQLQQPGTELVKPGASVKLSCKASGYTFSIFCIHWVQQRPGRGLEWIGRIDPSSGGTKYNERFENKATLTVDKSSSTAYMQLSSLTFEDSAVYYCARGEDLLVRTDAMDYWGQGTSVTVSS
VL: DIVMTQSQKFMSTTVGDRVSITCKASQNAGAAVAWFQQKPGQSPKLLIYSASNRYTGVPDRFTGSGSGTDFTLTITNVQSEDLADYICQQYRSFPRTFGGGTKLEIK
B6: 227D3B11 (antibody, V domains shown)
VH: QVQLQQPGAELVKPGASVKLSCKASGYSFSTFFIHWIQQRPGRGLEWIGRIDPNSGGTKYNEKFESKATLTVDKPSSTAYMHLSSLTSEDSAVYYCARGEDLLIRTDAMDYWGQGTSVTVSS
VL: DIVMTQSQKIMSTTVGDRVSITCKASQNAGIDVAWFQQKPRQSPKLLIFSTSNRYTGVPDRFAGSGSGTDFTLTIYNVQSEDLADYFCLQYRSYPRTFGGGTKLEIK
B7: 217H12A7 (antibody, V domains shown)
VH: QVQLQQPGAELVKPGASVKLSCKASGYTFSTFLIHWVQQRPGRGLEWIGRIDPNSGGTKYNEKFERKVTLTVDKPSSTAYMQLSSLTSEDSAVYYCARGEDLLLRTDAMDYWGQGTSVTVSS
VL: DIVMTQSQKFMSTTVGDRVSITCKASQNAGTAVAWFQQKPGQSPKLLIYSAFNRYTGVPDRFTGSGSGTDFTLTISNMQSEDLADYICQQYRSYPRTFGGGTKLEIK
B8: 210D9B8 (antibody, V domains shown)
VH: QVQLQQPGTEFVKPGASVKLSCEASGYTFITYWMHWVKQRPGRGLEWIGGIDPNSGVIKYNEKFKSKATLTVDKPSSTAYMQLSSLTSEDSAVYYCARGEDLLIRTDAMDYWGQGTSVTVSS
VL: DIVMTQSQKFVSTTLGDRVSITCKASQSVGIAVAWYQQKPGHSPNLLIFSTSNRYTGVPDRFTGSGSGTDFTLTISDVQSEDLADYFCQQYSRYPRTFGGGTKLEIK

target: Recombinant Human BAFF (epitope mapping) (human); experiment: HXMS, BAFF with equimolar antibody

binding, binds:
B1
B2
B3
B4
B5
B6
B7
B8

No constants are given. Whether binding was seen depends on the method and setting. Binding can be weak; no strength is given.
